This is an account of results in patent publication EP3098228A1, “POLYOXOMOLYBDATE-BISPHOSPHONATE COMPLEX CONTAINING A HETEROMETALLIC ION DIFFERENT FROM MOLYBDENUM” (CENTRE NATIONAL DE LA RECHERCHE SCIENTIFIQUE, priority 2015, dated 2016).

The subject of the assay is Human tumor cell lines MCF-7 (breast adenocarcinoma). As to the kind of experiment: Cell-growth inhibition assay (MTT cell proliferation assay, 4 days). The format is cell-based. As to conditions: MCF7, 96 h, MCF-7, 4 days incubation. As to the method: Human tumor cell lines MCF-7 (breast adenocarcinoma were obtained from the National Cancer Institute and maintained at 100% humidity and 5% CO2 at 37 °C. Cell lines were cultured in RPMI-1640 medium supplemented with 2 mM L-glutamine and 10% fetal bovine serum (Gibco, Grand Island, NY) at 37°C in a 5% CO2 atmosphere with 100% humidity. Compound stock solutions were typically prepared in water at a concentration of 0.04 M. A broth microdilution method was used to determine the bisphosphonate growth inhibition IC50 values. Compounds were half log serial diluted using cell culture media into 96-well TC-treated round bottom plates (Corning Inc., Corning, NY) typically from 1264 µM to 40 nM, but in some cases compounds were run over a larger concentration range to enable accurate IC50 determinations. Cells were plated at a density of 5000 cells/well. […]

Where two headings read alike, the source gives them in different places.

On to `NCCCC(O)(P(=O)(O)O)P(=O)(O)O` [Ale, alendronate], for which the IC50 (commonly the point on the concentration scale where inhibition reaches its midpoint) (molar basis, read-out: IC50) amounted to 210 ± 6 µM and the IC50 (per-bisphosphonate basis, read-out: IC50 per BP) amounted to 210 ± 6 µM.
